Assay results as given in paper PMC7210770.
Results are given in words; binding and its absence hold for the method and conditions named. Binding seen in cells or lysates may run through a third protein.

Amino acid sequences for entries named in this document (tags omitted).
UniProt Q38898: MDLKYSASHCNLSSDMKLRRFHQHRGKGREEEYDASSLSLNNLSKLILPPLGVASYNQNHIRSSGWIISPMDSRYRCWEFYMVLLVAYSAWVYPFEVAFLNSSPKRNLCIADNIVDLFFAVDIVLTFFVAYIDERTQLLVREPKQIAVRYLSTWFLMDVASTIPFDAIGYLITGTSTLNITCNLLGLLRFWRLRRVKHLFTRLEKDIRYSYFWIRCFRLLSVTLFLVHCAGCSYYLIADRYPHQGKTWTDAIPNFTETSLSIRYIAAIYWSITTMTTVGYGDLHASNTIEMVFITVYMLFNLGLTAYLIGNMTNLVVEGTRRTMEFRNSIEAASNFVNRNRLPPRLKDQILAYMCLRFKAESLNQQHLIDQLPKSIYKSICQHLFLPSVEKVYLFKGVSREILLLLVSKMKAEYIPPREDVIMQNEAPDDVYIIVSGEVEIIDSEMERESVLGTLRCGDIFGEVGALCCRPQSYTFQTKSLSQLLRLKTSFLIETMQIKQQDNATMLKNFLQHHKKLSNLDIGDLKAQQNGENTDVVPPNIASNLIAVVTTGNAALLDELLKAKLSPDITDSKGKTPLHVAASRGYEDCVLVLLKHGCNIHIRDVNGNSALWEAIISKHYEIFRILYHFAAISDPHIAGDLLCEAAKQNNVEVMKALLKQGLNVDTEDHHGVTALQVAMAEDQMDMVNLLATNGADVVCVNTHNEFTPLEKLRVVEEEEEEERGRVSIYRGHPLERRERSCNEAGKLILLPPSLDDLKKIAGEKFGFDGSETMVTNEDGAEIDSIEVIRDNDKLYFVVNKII

Target: AKT2 (K+ channel), BiFC construct (Arabidopsis) (UniProt Q38898)
Experiment: split reporter; BiFC with split YFP (pDH51-GW-YFPC / pDH51-GW-YFPN) co-transfected into Arabidopsis mesophyll protoplasts, 16 h at 25 °C in the dark, confocal microscopy; empty vectors as negative controls

binding: no binding
B1: CIPK25ΔC (kinase domain of CIPK25, lacking the C-terminal domain), BiFC construct in pDH51-GW-YFPC (domain or fragment, UniProt Q8W1D5 43-297)
chain: YEMGRLLGKGTFGKVYYGKEITTGESVAIKIINKDQVKREGMMEQIKREISIMRLVRHPNIVELKEVMATKTKIFFIMEYVKGGELFSKIVKGKLKEDSARKYFQQLISAVDFCHSRGVSHRDLKPENLLVDENGDLKVSDFGLSALPEQILQDGLLHTQCGTPAYVAPEVLRKKGYDGAKGDIWSCGIILYVLLAGFLPFQDENLMKMYRKIFKSEFEYPPWFSPESKRLISKLLVVDPNKRISIPAIMRTPWF
